Test results as given in US20160238618A1.
These are yes or no findings as the source states them, for the method shown. Some binding calls cover weakened binding; strength is not graded here.

Amino acid sequences for entries named in this document (tags omitted). A change or cut given only in a name is not applied to a line headed by its entry.
UniProt Q00613: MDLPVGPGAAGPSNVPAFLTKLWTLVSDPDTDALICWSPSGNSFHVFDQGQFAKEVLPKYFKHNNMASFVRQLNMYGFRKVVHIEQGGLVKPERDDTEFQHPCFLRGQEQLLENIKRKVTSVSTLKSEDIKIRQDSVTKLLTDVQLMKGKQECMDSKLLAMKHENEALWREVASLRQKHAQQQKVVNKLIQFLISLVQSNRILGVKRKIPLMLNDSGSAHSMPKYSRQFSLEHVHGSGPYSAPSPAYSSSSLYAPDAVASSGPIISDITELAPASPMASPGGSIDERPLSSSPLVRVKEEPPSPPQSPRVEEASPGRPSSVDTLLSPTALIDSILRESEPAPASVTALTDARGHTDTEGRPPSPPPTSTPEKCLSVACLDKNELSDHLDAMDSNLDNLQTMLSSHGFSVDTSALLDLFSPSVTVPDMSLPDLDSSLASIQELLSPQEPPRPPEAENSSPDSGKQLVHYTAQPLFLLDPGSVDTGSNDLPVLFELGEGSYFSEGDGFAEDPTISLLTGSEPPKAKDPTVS

What was measured:
[1] = biological target: T1, RNA binding motif protein 45 (Homo sapiens (Human)) (UniProt Q8IUH3); assay: inferred from immunocolocalization in stressed HEK293 cells
T1 sequence: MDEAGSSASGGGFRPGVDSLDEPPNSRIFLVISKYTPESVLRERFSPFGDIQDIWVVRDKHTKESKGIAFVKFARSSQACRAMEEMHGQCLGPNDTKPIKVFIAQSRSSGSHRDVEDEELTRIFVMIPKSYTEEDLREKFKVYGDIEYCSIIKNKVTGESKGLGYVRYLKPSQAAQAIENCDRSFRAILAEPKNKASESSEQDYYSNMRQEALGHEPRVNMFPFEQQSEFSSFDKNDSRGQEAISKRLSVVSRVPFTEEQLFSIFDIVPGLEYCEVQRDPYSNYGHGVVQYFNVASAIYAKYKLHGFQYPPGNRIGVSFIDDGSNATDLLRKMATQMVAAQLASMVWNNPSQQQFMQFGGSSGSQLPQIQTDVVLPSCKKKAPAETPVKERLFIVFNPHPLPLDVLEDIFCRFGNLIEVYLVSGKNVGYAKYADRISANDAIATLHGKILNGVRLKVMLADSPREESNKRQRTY

[2] = biological target: heat shock transcription factor 1 (Homo sapiens (Human)) (UniProt Q00613); assay: quantitative immunocolocalization analysis in HEK293 cells (immunofluorescence, digital deconvolution)
[3] = biological target: heat shock transcription factor 1 (Homo sapiens (Human)) (UniProt Q00613); assay: quantitative immunocolocalization analysis in HEK293 cells

heat shock transcription factor 1 (from UniProt Q00613 1-529)
binding [1]: binds

B1: RNA binding motif protein 45 (protein)
chain: T1 sequence
binding [2]: binds
binding [3]: binds
